In patent US20040224408A1, “THAP proteins as nuclear receptors for chemokines and roles in transcriptional regulation, cell proliferation and cell differentiation” (published 2004) one finds binding data, which are given here for eleven molecules.

Amino acid sequences for entries named in this document (tags omitted). A change or cut given only in a name is not applied to a line headed by its entry.
UniProt P02778: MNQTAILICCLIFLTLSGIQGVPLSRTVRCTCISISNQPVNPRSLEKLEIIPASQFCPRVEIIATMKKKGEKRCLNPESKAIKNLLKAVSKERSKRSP
UniProt Q99731: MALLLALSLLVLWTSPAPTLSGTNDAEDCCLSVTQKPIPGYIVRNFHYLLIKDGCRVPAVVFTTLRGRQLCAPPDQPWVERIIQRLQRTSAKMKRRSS
UniProt Q9H0W7: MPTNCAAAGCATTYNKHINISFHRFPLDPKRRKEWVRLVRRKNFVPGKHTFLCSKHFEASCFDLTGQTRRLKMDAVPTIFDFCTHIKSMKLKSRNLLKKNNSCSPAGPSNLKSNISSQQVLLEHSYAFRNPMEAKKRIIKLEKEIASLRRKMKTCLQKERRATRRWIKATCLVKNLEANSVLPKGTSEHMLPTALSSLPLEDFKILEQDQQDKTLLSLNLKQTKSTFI

Assay [1] concerns the target T1, GST-Par4DD fusion protein (pGEX-2T-Par4DD, Par4 amino acids 250-342) (human) (UniProt Q96IZ0).
T1 sequence: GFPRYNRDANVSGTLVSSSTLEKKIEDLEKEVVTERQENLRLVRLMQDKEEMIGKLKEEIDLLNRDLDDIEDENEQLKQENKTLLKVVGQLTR
Briefly: GST pull-down (legend of FIG. 10C).

Assay [2] deals with T1, GST-Par4DD fusion protein (pGEX-2T-Par4DD, Par4 amino acids 250-342) (human). Briefly: in vitro GST pull-down with GST-Par4DD (FIG. 10C).
Assay [3] deals with T2, human THAP1 (THanatos (death)-Associated Protein-1), full length (human) (UniProt Q9NVV9).
T2 sequence: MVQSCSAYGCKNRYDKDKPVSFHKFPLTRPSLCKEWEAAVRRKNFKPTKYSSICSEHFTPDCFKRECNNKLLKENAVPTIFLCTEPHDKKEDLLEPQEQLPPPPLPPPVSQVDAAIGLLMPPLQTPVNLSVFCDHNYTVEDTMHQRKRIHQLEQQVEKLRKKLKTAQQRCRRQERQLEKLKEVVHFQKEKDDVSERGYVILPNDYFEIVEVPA
Briefly: GST pull-down, immobilized GST-Par4DD, in vitro translated 35S-labelled THAP1, SDS-PAGE and fluorography.

Assay [4] deals with T1, GST-Par4DD fusion protein (pGEX-2T-Par4DD, Par4 amino acids 250-342) (human). The assay is described as follows: GST pull-down (legend of FIG. 3B).
The target is the same in assay [5]. The assay is described as follows: GST pull-down (legend of FIG. 7A).
In assay [6] the target is human chemokine IP10/CXCL10, mature form (amino acids 22-98) (human) (UniProt P02778). The assay is described as follows: yeast two-hybrid, pGADT7-THAP1 with pGBKT7-CXCL10.
Assay [7] has as its target T3, human chemokine I-TAC/CXCL11, mature form (amino acids 22-94) (human) (UniProt O14625).
T3 sequence: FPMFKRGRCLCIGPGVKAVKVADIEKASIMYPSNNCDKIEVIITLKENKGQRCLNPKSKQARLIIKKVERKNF
Briefly: yeast two-hybrid, pGADT7-THAP1 with pGBKT7-chemokine.

In assay [8] the target is T4, partial PAR4 from the HEVEC two-hybrid library clones (positions 193-342) (human) (UniProt Q96IZ0).
T4 sequence: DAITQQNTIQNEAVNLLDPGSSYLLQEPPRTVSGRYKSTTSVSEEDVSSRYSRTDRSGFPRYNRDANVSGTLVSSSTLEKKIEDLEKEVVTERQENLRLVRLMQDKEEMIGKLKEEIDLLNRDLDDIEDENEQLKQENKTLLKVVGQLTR
The assay is described as follows: yeast two-hybrid screen of the pGAD424-HEVEC cDNA library with pGBKT7-THAP1 bait (His/Ade selection).

Assay [9] concerns the target human chemokine ELC/CCL19, mature form (amino acids 22-98) (human) (UniProt Q99731). Briefly: GST pull-down, SDS-polyacrylamide gel (legend of FIG. 20C).
For assay [10], the target named is human chemokine IP10/CXCL10, mature form (amino acids 22-98) (human) (UniProt P02778). Described as above.
Assay [11] has as its target T5, human chemokine MIG/CXCL9, mature form (amino acids 23-125) (human) (UniProt Q07325).
T5 sequence: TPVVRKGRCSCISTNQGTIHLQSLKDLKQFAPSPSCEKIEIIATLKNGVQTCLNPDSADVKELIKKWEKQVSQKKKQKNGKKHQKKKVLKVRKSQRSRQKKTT
The description is as above.

Assay [12] addresses human chemokine SLC/CCL21, mature form (amino acids 24-134) (human) (UniProt O00585). The assay is described as follows: GST pull-down, immobilized GST-THAP1, in vitro translated 35S-labelled SLC/CCL21.
Assay [13] concerns the target human chemokine ELC/CCL19, mature form (amino acids 22-98) (human) (UniProt Q99731). Briefly: GST pull-down, immobilized GST-THAP1, in vitro translated 35S-labelled chemokine.
Assay [14] deals with T3, human chemokine I-TAC/CXCL11, mature form (amino acids 22-94) (human). Described as above.
Assay [15] deals with human chemokine IP10/CXCL10, mature form (amino acids 22-98) (human) (UniProt P02778). Described as above.
In assay [16] the target is T5, human chemokine MIG/CXCL9, mature form (amino acids 23-125) (human). The description is as above.
Assay [17] deals with human chemokine SLC/CCL21, mature form (amino acids 24-134) (human) (UniProt O00585). The assay is described as above.
Assay [18] addresses T6, GST-THAP1 fusion protein (pGEX-2T-THAP1) (human).
T6 sequence: T2 sequence
The assay is described as follows: GST pull-down, immobilized GST-THAP1, in vitro translated protein.

Assay [19] has the same target. Briefly: GST pull-down, immobilized GST-THAP1, in vitro translated SLC/CCL21ΔCOOH.
Assay [20] has the same target. Briefly: GST pull-down, immobilized GST-THAP1, in vitro translated 35S-labelled mutant.
In assay [21] the target is T1, GST-Par4DD fusion protein (pGEX-2T-Par4DD, Par4 amino acids 250-342) (human). Briefly: GST pull-down, immobilized GST-Par4DD, in vitro translated 35S-labelled mutant.
Assay [22] shares this target. Briefly: GST pull-down, immobilized GST-Par4DD, in vitro translated 35S-labelled THAP1ΔTHAP.

These are yes or no findings as the source states them, for the method shown. For some of these results: In cells and extracts the contact can be indirect. Some binding calls cover weakened binding; strength is not graded here. For some of these results: Sequences can lack the tags named with a protein.

For the molecule human THAP2 (from UniProt Q9H0W7 1-228), the binding result in [1] and in [2] was “binds” each time.

B1: GST-Par4DD fusion protein (pGEX-2T-Par4DD, Par4 amino acids 250-342) (other)
chain: T1 sequence
notes: Expressed in E. coli DH5alpha and immobilized on glutathione sepharose; not shown: Glutathione S-transferase (GST) encoded by the pGEX-2T prokaryotic expression vector (Amersham Pharmacia Biotech); N-ter
As to B1, the binding result in assay [3] is “binds”.

B2: human THAP3 (protein)
chain: MPKSCAARQCCNRYSSRRKQLTFHRFPFSRPELLKEWVLNIGRGNFKPKQHTVICSEHFRPECFSAFGNRKNLKHNAVPTVFAFQDPTQQVRENTDPASERGNASSSQKEKVLPEAGAGEDSPGRNMDTALEELQLPPNAEGHVKQVSPRRPQATEAVGRPTGPAGLRRTPNKQPSDHSYALLDLDSLKKKLFLTLKENEKLRKRLQAQRLVMRRMSSRLRACKGHQGLQARLGPEQQS
Take B2: the binding entry in [1] and in [2] was “binds” in each case.

B3: human THAP1 (THanatos (death)-Associated Protein-1), full length (other)
chain: T2 sequence
notes: It was tested as a Gal4-BD (pGBKT7) or Gal4-AD (pGADT7); also called hTHAP1; FLJ10477
As for B3, the binding entry in assay [4], in assay [5], in assay [6], in [7] and in [8] was “binds” each time.

B4: GST-THAP1 fusion protein (pGEX-2T-THAP1) (protein, not shown: a dimerising Fc or GST)
chain: T2 sequence
For the molecule B4, the binding result in assay [9], in assay [10], in assay [11], in assay [12], in assay [13] and in [14] was “binds” throughout. Also, the binding result in assay [15], in [16] and in assay [17] was “binds” throughout.

B5: human chemokine SLC/CCL21, mature form (amino acids 24-134) (ligand)
chain: SDGGAQDCCLKYSQRKIPAKVVRSYRKQEPSLGCSIPAILFLPRKRSQAELCADPKELWVQQLMQHLDKTPSPQKPAQGCRKDRGASKTGKKGKGSKGCKRTERSQTPKGP
notes: also called SLC/6Ckine; SLC/CCL21 wild type
For the molecule B5, in assay [18], the binding entry was “binds”.

B6: SLC/CCL21ΔCOOH deletion mutant lacking the basic carboxy-terminal extension (ligand)
chain: SDGGAQDCCLKYSQRKIPAKVVRSYRKQEPSLGCSIPAILFLPRKRSQAELCADPKELWVQQLMQHLDKTPSPQKPAQG
notes: Tested as a Gal4-AD or Gal4-BD fusion and as in vitro translated protein; also called SLC/CCL21?COOH
On to B6, for which the binding entry in [19] was “binds”.

B7: THAP1-C2 deletion mutant (amino acids 120-213) (other)
chain: MPPLQTPVNLSVFCDHNYTVEDTMHQRKRIHQLEQQVEKLRKKLKTAQQRCRRQERQLEKLKEVVHFQKEKDDVSERGYVILPNDYFEIVEVPA
notes: Tested as a Gal4-BD or Gal4-AD fusion, as in vitro translated 35S-labelled protein and as an EGFP fusion
Consider B7, for which the binding result in assay [20] and in assay [21] was “binds” in each case.

B8: THAP1-C1 deletion mutant (amino acids 90-213) (other)
chain: KEDLLEPQEQLPPPPLPPPVSQVDAAIGLLMPPLQTPVNLSVFCDHNYTVEDTMHQRKRIHQLEQQVEKLRKKLKTAQQRCRRQERQLEKLKEVVHFQKEKDDVSERGYVILPNDYFEIVEVPA
notes: Tested as a Gal4-BD or Gal4-AD fusion, as in vitro translated 35S-labelled protein and as an EGFP fusion; also called THAP1ΔTHAP; THAP1?THAP
Regarding B8, the binding entry in [5], in assay [20], in assay [21] and in assay [22] was “binds” in each case.

B9: THAP1-N3 deletion mutant (amino acids 1-192) (other)
chain: MVQSCSAYGCKNRYDKDKPVSFHKFPLTRPSLCKEWEAAVRRKNFKPTKYSSICSEHFTPDCFKRECNNKLLKENAVPTIFLCTEPHDKKEDLLEPQEQLPPPPLPPPVSQVDAAIGLLMPPLQTPVNLSVFCDHNYTVEDTMHQRKRIHQLEQQVEKLRKKLKTAQQRCRRQERQLEKLKEVVHFQKEKDD
notes: as for B7
Take B9: the binding entry in assay [20] and in assay [21] was “binds” each time.

B10: THAP1-C3 deletion mutant (amino acids 143-213) (other)
chain: MHQRKRIHQLEQQVEKLRKKLKTAQQRCRRQERQLEKLKEVVHFQKEKDDVSERGYVILPNDYFEIVEVPA
notes: as for B7
With B10, the binding entry in [20] and in assay [21] was “binds” each time.
